{"source": "paper PMC5794963", "about": "“Link between the causative genes of holoprosencephaly: Zic2 directly regulates Tgif1 expression”", "key": {"F-HA-Zic2 [1]": {"target": "T1, F-HA-Zic2 (UniProt Q62520)", "T1 sequence (looked up, limits assumed)": "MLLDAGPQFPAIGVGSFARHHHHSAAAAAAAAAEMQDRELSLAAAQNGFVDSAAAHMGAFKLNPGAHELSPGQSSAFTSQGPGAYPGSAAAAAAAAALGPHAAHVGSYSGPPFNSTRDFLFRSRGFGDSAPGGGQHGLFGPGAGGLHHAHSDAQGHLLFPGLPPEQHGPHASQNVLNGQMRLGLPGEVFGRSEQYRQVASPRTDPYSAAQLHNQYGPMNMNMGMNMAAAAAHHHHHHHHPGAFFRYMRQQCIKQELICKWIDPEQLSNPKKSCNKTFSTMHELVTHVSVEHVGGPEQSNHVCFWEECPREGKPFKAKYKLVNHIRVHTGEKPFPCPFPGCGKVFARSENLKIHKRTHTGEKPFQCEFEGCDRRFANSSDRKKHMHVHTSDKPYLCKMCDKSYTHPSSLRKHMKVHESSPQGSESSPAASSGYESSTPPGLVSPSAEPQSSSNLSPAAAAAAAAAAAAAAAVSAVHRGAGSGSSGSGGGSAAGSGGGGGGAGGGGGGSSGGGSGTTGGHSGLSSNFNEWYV", "experiment": "EMSA", "conditions": "recombinant protein, protein details: N-terminal FLAG-HA"}, "GLI3-ZF-CH6 (GLI3 ZFD)": {"target": "T2, GLI3-ZF-CH6 (GLI3 ZFD) (UniProt P10071)", "T2 sequence (looked up, limits assumed)": "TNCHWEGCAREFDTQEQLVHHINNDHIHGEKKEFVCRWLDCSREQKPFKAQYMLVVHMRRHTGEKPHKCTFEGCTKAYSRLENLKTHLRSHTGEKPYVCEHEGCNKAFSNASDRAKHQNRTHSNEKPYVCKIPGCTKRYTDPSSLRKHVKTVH", "experiment": "EMSA", "conditions": "GBS preferred, section heading says ZBS not recognized by GLI; recombinant protein; label: 5' IRD700 or IRD800 both strands"}, "F-HA-Zic2 [2]": {"target": "T1, F-HA-Zic2", "experiment": "competition with a labelled probe", "conditions": "against N1, shifted bands partially disappear; recombinant protein; protein details: N-terminal FLAG-HA; letters put together from the description"}}, "note": "The exact form of at least one protein or probe is not confirmed. Weaker means in comparison with the reference protein, sequence or condition of that experiment. For some assays here: At least one verdict was read from the data and is not stated in words by the source. Protein sequences can lack the tags named with them.", "data": [{"sequence": "CACCGGGGCGCAGCAGCTGAGTCATCCCCTGCCGGGTCCCGGAAAGCGCTGCGCCAGGGC (double strand) [Tgif1 -1709 to -1649 probe]", "values": [{"measurement": "binding result", "setting": "F-HA-Zic2 [1]; weak binding site, label: 5' IRD700 on reverse strand, letters put together from the description", "result": "binds more weakly"}]}, {"sequence": "CCAGCTCCTCCTCCCCGAGTCTGTTCTCCCTCCTCTCCCGAGTCCCCGGCGGATGTGAGCCACCAATCCCAGCCACAAACACCAAAAACCCAGAGC (double strand) [Tgif1 -1866 to -1760 probe]", "values": [{"measurement": "binding result", "setting": "F-HA-Zic2 [1]; weak binding site, label: 5' IRD700 on forward strand, letters put together from the description", "result": "binds more weakly"}]}, {"sequence": "CCAGCTCCTCCTCCCCGAGTCTGTTCTCCCTCCTCTCCCGAGTCCCCGGCGGATGTGAGCCACCAATCCCAGCCACAAACACCAAAAACCCAGAGCGAGGCGGCCCTCAACCGGCGGCTGGGCCCTCCGTGGCCCCCTCCCGCACCACATGAGTCCCGCACCGGGGCGCAGCAGCTGAGTCATCCCCTGCCGGGTCCCGGAAAGCGCTGCGCCAGGGC (double strand) [Tgif1 -1866 to -1649 probe]", "values": [{"measurement": "binding result", "setting": "F-HA-Zic2 [1]; three shifted bands, label: 5' IRD700 both strands", "result": "binds"}]}, {"sequence": "CCCGCACCACATGAGTCCCG / CGGGACTCATGTGGTGCGCC [ZBS core probe (-1728 to -1709)]", "values": [{"measurement": "binding result", "setting": "GLI3-ZF-CH6 (GLI3 ZFD)", "result": "binds more weakly"}]}, {"sequence": "GTGGCCCCCTCCCGCACCAC (double strand) [cp3 (-1738 to -1719)]", "values": [{"measurement": "binding result", "setting": "F-HA-Zic2 [2]", "result": "binds more weakly"}]}]}
